This is an account of results in paper PMC2691479, “SNX4 in Complex with Clathrin and Dynein: Implications for Endosome Movement” (PLoS ONE, 2009).

No constants are given. Whether binding was seen depends on the method and setting. Binding seen in cells or lysates may run through a third protein. For some assays here: A result given as binding can be weak or reduced; the word gives no strength.

Assay [1] has as its target T1, Sorting nexin 4 (SNX4), endogenous (human (endogenous in HEK293)) (UniProt O95219).
T1 sequence: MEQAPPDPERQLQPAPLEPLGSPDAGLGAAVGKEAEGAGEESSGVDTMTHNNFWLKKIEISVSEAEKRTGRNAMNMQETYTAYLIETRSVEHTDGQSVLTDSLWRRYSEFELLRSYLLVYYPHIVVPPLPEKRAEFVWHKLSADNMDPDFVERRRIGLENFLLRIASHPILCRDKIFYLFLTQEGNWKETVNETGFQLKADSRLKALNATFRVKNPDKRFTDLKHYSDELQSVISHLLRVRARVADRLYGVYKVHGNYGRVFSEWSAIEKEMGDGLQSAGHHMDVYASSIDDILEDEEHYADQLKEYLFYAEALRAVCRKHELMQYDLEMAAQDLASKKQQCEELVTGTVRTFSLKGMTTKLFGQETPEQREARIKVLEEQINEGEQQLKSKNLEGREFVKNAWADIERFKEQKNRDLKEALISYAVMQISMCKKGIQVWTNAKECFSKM
Briefly: condition: only cells treated with 100 nM wortmannin for 30 min; co-IP; as a1, but HEK293 cells treated with 100 nM wortmannin for 30 min before lysis; anti-SNX4 immunoprecipitation overnight at 4°C.

The target of assay [2] is T1, Sorting nexin 4 (SNX4), endogenous (human (endogenous in HEK293)). Briefly: co-IP; anti-SNX4 (E-18) on Protein A Sepharose, HEK293 lysate (0.1 M NaCl, 10 mM Na2HPO4 pH 7.4, 1 mM EDTA, 1% Triton X-100), overnight at 4°C, Western blot; cells untreated, or transfected with control, SNX4 or CHC siRNA, or treated with nocodazole for 30 min. For orientation: Immunoblotting shows a protein as a band on a membrane.

Turning to “tubulin, endogenous (human (endogenous in HEK293))”, the binding result is “no binding” in assay [1] and “binds” in assay [2].
